Reference: PubChem BioAssay AID504648 (National Center for Advancing Translational Sciences (NCATS), 2011)
The whole screen tested about 390,000 compounds, of which about 610 (0.16%) were called active. The inconclusive results got no clear call from the source; some entries with a clear call stand among them for comparison. The call rests on the fitted dose curve; in most records, active means well fitted inhibition curve with a large enough effect; inconclusive means small, poorly fitted or top-dose-only effect, or effect the other way, or another doubt; inactive means no such curve, though single readings can be large or run the other way. Potencies of inconclusive entries are doubtful fits and often do not repeat.

Assay: Nrf2 qHTS screen for inhibitors: counterscreen for cytotoxicity
Conditions: A549 ARE-Fluc cells, CellTiter-Fluor viability, 18-24 h; series mostly up to 46 µM
Summary of the method: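 Cytotoxicity counterscreen: CellTiter-Fluor fluorescence was measured in A549 ARE_Fluc cells after 18-24 h of compound exposure in a concentration series. The subsequent BugLite luminescent read reports ARE-luciferase activity.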
Potency means the concentration at half of the fitted maximal effect.

| SMILES | Potency |
| --- | --- |
| CCc1ccccc1NC(=O)c1sc2nc(C)cc(COC)c2c1N | inconclusive: 20.6 µM [activator, partial curve, poor fit] |
| O=C(O)c1ccc(-n2cccc2/C=C2/NC(=O)N(c3cccc(Cl)c3)C2=O)cc1 | inconclusive: 20.6 µM [falling, partial curve, poor fit] |
| CCc1ccc(Nc2n[n+](-c3ccccc3)c(-c3ccc(N(CC)CC)cc3)s2)cc1 | inconclusive: 23.1 µM [falling, single point] |
| CN(C)c1ccc(NC(=S)NC23CC4CC(CC(C4)C2)C3)cc1 | inconclusive: 0.0411 µM [activator, full curve, poor fit] |
| Cc1nn(-c2ccc(Cl)c(Cl)c2Cl)c(=O)c2ccccc12 | inconclusive: 23.1 µM [falling, partial curve, poor fit] |
| C=CCOC(=O)C1=C(C)NC(=O)NC1c1cn(-c2ccccc2)nc1-c1cccs1 (stereo unspecified) | inconclusive: 18.4 µM [falling, single point] |
| Cc1c(Cl)cccc1NC(=O)CC(c1ccc(F)cc1)N1Cc2ccccc2C1=O (stereo unspecified) | inconclusive: 18.4 µM [falling, single point] |
| Cc1ccc2nc(-c3ccc(NC(=O)C(C)N4C(=O)c5ccccc5C4=O)cc3)sc2c1 (stereo unspecified) | inactive |
| Fc1ccc(Cn2nnc3ccccc32)cc1 | inconclusive: 14.6 µM [activator, partial curve, poor fit] |
| COc1ccc(-c2onc(C)c2C)cc1S(=O)(=O)NCc1ccc(C)o1 | inconclusive: 11.6 µM [falling, partial curve] |
| CCN(c1ccc(Cl)cc1)S(=O)(=O)c1nnc(NC(=O)c2ccccc2C)s1 | inactive |
| CC(C)C(=O)Nc1ccc(C(=O)N/N=C/c2cc(Br)cc(Br)c2O)cc1 | inconclusive: 18.4 µM [falling, single point] |
| CCCCN(C)CCN1C(=O)C2C(C(=O)Nc3ccc(OC)cc3)C3C=CC2(O3)C1C(=O)NC1CCCCC1 (stereo unspecified) | inconclusive: 18.4 µM [falling, single point] |
| CN(C)c1nc(NCc2ccccc2)nc(SCC(=O)Nc2ccc(Cl)c(Cl)c2)n1 | inconclusive: 25.9 µM [falling, single point] |
| COc1cc(C(=O)NCCCCCCNC(=O)c2cc(OC)c(OC)c(OC)c2)cc(OC)c1OC | inconclusive: 5.8 µM [activator, partial curve, poor fit] |
| Fc1cccc(C2NC(=S)NC3=C2N2CCC3CC2)c1 (stereo unspecified) | inconclusive: 1.64 µM [falling, full curve, poor fit] |
| COc1ccccc1CCn1c(N)c(C#N)c2nc3ccccc3nc21 | inconclusive: 6.51 µM [activator, single point] |
| CC1(C)CC(=O)C2=C(C1)N1C(=C(C#N)C2c2ccccc2Cl)N=C(N)c2ccccc21 (stereo unspecified) | inconclusive: 29.1 µM [falling, single point] |
| Cc1nnc(N2CCC(C(=O)N3CCCCCC3)CC2)c2nn(-c3ccc(Cl)cc3)c(C)c12 | inconclusive: 20.6 µM [falling, single point] |
| Cc1ccccc1-c1nc2scc(CCNS(=O)(=O)c3ccccc3)n2n1 | inactive |
| CN(Cc1ccc(C#CCCO)cc1)CC1CCCN(CCc2ccc(Cl)cc2)C1 (stereo unspecified) | inconclusive: 29.1 µM [falling, partial curve, poor fit] |
| COc1ccc(Cn2c(=O)[nH]c3cc(C(=O)NCCCN4CCCC4)ccc3c2=O)cc1 | inconclusive: 29.1 µM [activator, single point] |

Laid out differently: results already given.
SMILES | Potency
CCc1ccc(Nc2n[n+](-c3ccccc3)c(-c3ccc(N(CC)CC)cc3)s2)cc1 | inconclusive: 23.1 µM [falling, single point]
CN(C)c1ccc(NC(=S)NC23CC4CC(CC(C4)C2)C3)cc1 | inconclusive: 0.0411 µM [activator, full curve, poor fit]
Cc1nn(-c2ccc(Cl)c(Cl)c2Cl)c(=O)c2ccccc12 | inconclusive: 23.1 µM [falling, partial curve, poor fit]
C=CCOC(=O)C1=C(C)NC(=O)NC1c1cn(-c2ccccc2)nc1-c1cccs1 (stereo unspecified) | inconclusive: 18.4 µM [falling, single point]
Cc1c(Cl)cccc1NC(=O)CC(c1ccc(F)cc1)N1Cc2ccccc2C1=O (stereo unspecified) | inconclusive: 18.4 µM [falling, single point]
Cc1ccc2nc(-c3ccc(NC(=O)C(C)N4C(=O)c5ccccc5C4=O)cc3)sc2c1 (stereo unspecified) | inactive
Fc1ccc(Cn2nnc3ccccc32)cc1 | inconclusive: 14.6 µM [activator, partial curve, poor fit]
COc1ccc(-c2onc(C)c2C)cc1S(=O)(=O)NCc1ccc(C)o1 | inconclusive: 11.6 µM [falling, partial curve]
CCN(c1ccc(Cl)cc1)S(=O)(=O)c1nnc(NC(=O)c2ccccc2C)s1 | inactive
CC(C)C(=O)Nc1ccc(C(=O)N/N=C/c2cc(Br)cc(Br)c2O)cc1 | inconclusive: 18.4 µM [falling, single point]
CCCCN(C)CCN1C(=O)C2C(C(=O)Nc3ccc(OC)cc3)C3C=CC2(O3)C1C(=O)NC1CCCCC1 (stereo unspecified) | inconclusive: 18.4 µM [falling, single point]
CN(C)c1nc(NCc2ccccc2)nc(SCC(=O)Nc2ccc(Cl)c(Cl)c2)n1 | inconclusive: 25.9 µM [falling, single point]
COc1cc(C(=O)NCCCCCCNC(=O)c2cc(OC)c(OC)c(OC)c2)cc(OC)c1OC | inconclusive: 5.8 µM [activator, partial curve, poor fit]
Fc1cccc(C2NC(=S)NC3=C2N2CCC3CC2)c1 (stereo unspecified) | inconclusive: 1.64 µM [falling, full curve, poor fit]
COc1ccccc1CCn1c(N)c(C#N)c2nc3ccccc3nc21 | inconclusive: 6.51 µM [activator, single point]
CC1(C)CC(=O)C2=C(C1)N1C(=C(C#N)C2c2ccccc2Cl)N=C(N)c2ccccc21 (stereo unspecified) | inconclusive: 29.1 µM [falling, single point]
Cc1nnc(N2CCC(C(=O)N3CCCCCC3)CC2)c2nn(-c3ccc(Cl)cc3)c(C)c12 | inconclusive: 20.6 µM [falling, single point]
Cc1ccccc1-c1nc2scc(CCNS(=O)(=O)c3ccccc3)n2n1 | inactive
CN(Cc1ccc(C#CCCO)cc1)CC1CCCN(CCc2ccc(Cl)cc2)C1 (stereo unspecified) | inconclusive: 29.1 µM [falling, partial curve, poor fit]
COc1ccc(Cn2c(=O)[nH]c3cc(C(=O)NCCCN4CCCC4)ccc3c2=O)cc1 | inconclusive: 29.1 µM [activator, single point]

Remaining list, next part

| SMILES | Potency |
| --- | --- |
| COc1ccc(NS(=O)(=O)c2cccc(NC(=O)c3ccc(Cl)nc3)c2)cc1 | inconclusive: 3.26 µM [falling, full curve] |
| COc1ccc2nc(Nc3nc(CSc4nc5ccccc5[nH]4)cc(=O)[nH]3)nc(C)c2c1 | inconclusive: 2.59 µM [falling, full curve] |
| CC1CC(C)C[N+](=C2C=C(N3CCCC3)CC(C)(C)C2)C1 (stereo unspecified) | inconclusive: 9.2 µM [falling, partial curve, poor fit] |
| COc1ccc(Cc2nc3ccc(C(=O)NCCc4ccncc4)cc3o2)cc1OC | inactive |
| Cc1cccc(CN2C(=O)N(c3ccc(C(C)C)cc3)S(=O)(=O)c3ccccc32)c1 | inconclusive: 16.4 µM [activator, partial curve, poor fit] |
| COc1cc2c(c(OC)c1OC)-c1ccc(N(C)CC(OC)OC)c(=O)cc1[C@@H](NC(C)=O)CC2 | inconclusive: 25.9 µM [falling, partial curve, poor fit] |
| O=C(COc1ccccc1)N1CCN(c2nnc(-c3ccccc3)c3ccccc23)CC1 | inconclusive: 29.1 µM [falling, single point] |
| COc1ccc(N2CCN(c3nc(NC(C)(C)C)nc(N4CCCCC4)n3)CC2)cc1 | inconclusive: 20.6 µM [falling, partial curve, poor fit] |
| Cc1c(C(=O)NCc2ccccc2)sc2nc3n(c(=O)c12)CCCCC3 | inconclusive: 20.6 µM [activator, single point] |
| Cc1ccc(C(=O)c2coc3ccc(O)c(CN4CCN(C)CC4)c23)cc1 | inconclusive: 25.9 µM [falling, single point] |
| Cc1ccc(NC(=O)c2oc3ccc(S(=O)(=O)N4CCC5(CC4)OCCO5)cc3c2C)cc1C | inactive |
| Cc1cc(C)cc(Nc2ncnc3nc[nH]c23)c1 | inactive |
| CC1CCCN(C(=O)COC(=O)c2n[nH]c3ccccc23)C1 (stereo unspecified) | inactive |
| COc1ccccc1C1CCN(Cc2ccc(Cl)c(Cl)c2)CC1 | inactive |
| C[n+]1ccc(/C=C/c2c[nH]c3ccc(F)cc23)cc1 | inconclusive: 2.91 µM [falling, partial curve, poor fit] |
| COc1cc(NC(=O)COc2ccccc2[N+](=O)[O-])ccc1NC(=O)c1ccco1 | inactive |
| Cc1cc(NC(=O)c2cc(-c3ccc(C)c(C)c3)nc3ccccc23)no1 | inactive |
| C=CCn1c(O)c(N=NC(=S)Nc2cccc(OC)c2)c2ccccc21 | inconclusive: 10.3 µM [falling, partial curve, poor fit] |
| Cc1ccc(NC(=S)N/N=C2/CCCCc3ccccc32)cc1 | inactive |
| O=C(NCc1cccs1)c1ccc(Cn2c(SCc3ccccc3)nc3cccnc32)cc1 | inconclusive: 29.1 µM [falling, single point] |
| CC(=O)c1ccc(NC(=O)CN2C(=O)CCc3ccccc32)cc1 | inactive |
| O=C(c1ccc(S(=O)(=O)N2CCCC2)cc1)N1CCC(CN2C(=O)c3cccc4cccc(c34)C2=O)CC1 | inactive |

| SMILES | Potency |
| --- | --- |
| C=CC(=O)N1C/C(=C/c2ccc(F)cc2)C(=O)/C(=C\c2ccc(F)cc2)C1 | inconclusive: 20.6 µM [falling, single point] |
| CC(C)(C)c1nnc(N/N=C/c2cc(Br)ccc2O)n(N)c1=O | inconclusive: 29.1 µM [falling, single point] |
| Cc1c(-n2c(=S)[nH]c3ccccc3c2=O)c(=O)n(-c2ccccc2)n1C | inconclusive: 29.1 µM [falling, single point] |
| CCCC(=O)Nc1nc2c(c(=O)[nH]1)CCCC2 | inconclusive: 7.31 µM [activator, partial curve, poor fit] |
| CCOC(=O)c1cc(-c2nnc(-c3ccc(Cl)cc3)o2)c(C)nc1C | inactive |
| O=C(O)c1cccc(S(=O)(=O)NNc2ccccc2C(F)(F)F)c1 | inactive |
| COC(=O)C1=CN(CCCN2CCCC2=O)C=C(C(=O)OC)C1c1ccccc1C(F)(F)F | inconclusive: 18.4 µM [activator, partial curve] |
| O=C1N[C@@H](Cc2c[nH]c3ccccc23)COC(=O)[C@@H](Cc2ccc(F)cc2)C/C=C\C[C@H]1CC(=O)N(CCO)Cc1ccccc1 | inconclusive: 29.1 µM [falling, single point] |
| Cc1ccc(C2=NNC(=Nc3ccc(F)cc3)SC2)cc1 | inconclusive: 29.1 µM [falling, single point] |
| O=C(CSc1n[nH]c(-c2cccnc2)n1)Nc1ccc(Br)cc1 | inactive |
| O=C(CCl)NN1C(=O)NC(c2ccccc2)(c2ccccc2)C1=O | inconclusive: 8.2 µM [falling, partial curve] |
| COc1ccc2c(c1)c1c(c(=O)n(Cc3ccccc3)c(=O)n1Cc1ccccc1)n2C | inactive |
| CC1(C)Cc2ccccc2C(N/N=C/c2ccc([N+](=O)[O-])cc2)=N1 | inactive |
| O=C(/C=C/c1cc2c(cc1Br)OCO2)NCc1ccc(F)cc1 | inactive |
| CC(=O)Oc1ccc2ccccc2c1C(NC(=O)Cc1ccccc1)c1ccccc1 (stereo unspecified) | inconclusive: 23.1 µM [falling, partial curve] |
| O=C(COC(=O)CSc1ccccc1)NCCNC(=O)COC(=O)CSc1ccccc1 | inactive |
| CC(C)c1cc2c(c(O)c1O)[C@@]13CCCC(C)(C)C1CC2OC3=O (stereo partly specified) | inactive |
| CC1CCN(S(=O)(=O)c2ccc3c(c2)N(CC(=O)NCCCN2CC(C)CC(C)C2)C(=O)CS3)CC1 (stereo unspecified) | inconclusive: 20.6 µM [falling, partial curve, poor fit] |
| CN(C(=O)CN1C(=O)c2cccc(N)c2C1=O)C1CCCCC1 | inconclusive: 23.1 µM [activator, single point] |
| COc1cc2nc(N(C)C)nc(N)c2cc1OC | inconclusive: 23.1 µM [falling, partial curve, poor fit] |
| Cc1ccc(C)c(CSc2nnc(-c3cccs3)n2Cc2ccco2)c1 | inconclusive: 18.4 µM [falling, single point] |
| CC[C@@H]1CC=C[C@H]2[C@H]1C(=O)N(Cc1ccccc1)[C@H]2c1ccc(C(F)(F)F)cc1 | inconclusive: 29.1 µM [falling, single point] |
